# From the supplement of paper PMC8728848
# Some of the results follow.
# B1: BT4246 (Bacteroides thetaiotaomicron), Q89ZX5 (protein)
# chain: MGSSHHHHHHENLYFQGHMASDYLDVVPPEQPNIDDAMSSPTRALGFLYSCYGGVSTDLPSAYLGEINSTTDEYVLPYSWNTDGYWGAYAFNTASSTNQDWLWGTTYQYIGQCYLFLQKLENAGSDIASDAEKEQWRAECQFLVAYYHFATLRRYGPIPITDSYIPMDTPTSEYNGRFHFDYCVDWIANQLDEAAKVLPANRTVTNEWGRATSTIAKAVKARLLLYAASPLWNGSFPYPNWQNENFETPGYGKALVSNTYDKSKWERALAACQEALTLATTSGDRELYDDDEYYSRQSLNLPFVPGVADVEDNKEFLKNVMKMRYAVSTRESEGNKEIIWGLSNQFDFYSRYPLRILKKSDGTWHAGYSGVSPTLYTFEHFYTANGKLPEKDLDFTPSSEWFESAGISSREDIIKLNVGREPRFYAWMAFDGGDYGTKFAAGSPLKLEMRNSEMHGYNPSLFNRDHSVTGFLTQKFVDPVTEFYTAGGSTSGTSAPTILFRLAELYLNVAECHAALGNTQEAIDALNPVRERAGIPKLTLADITNNMTIKDWVHNERFVELWNEGHRFFDVRRWAEGAKYFGANKREGLNAEVQSPTFEEFNKRTTVDAPYVWENRMYLNPVFYNEVYKNPQMVQAPGY
# Legend:
# Assay in all cases: glycan array binding signal (z-score within array); higher = stronger binding
# Settings in all cases: glycan notation: IUPAC condensed, linker removed
# [1] = biological target: Neu5Ac(a2-6)Gal(b1-4)GlcNAc(b1-2)Man(a1-3)[GlcNAc(b1-4)][Neu5Ac(a2-6)Gal(b1-4)GlcNAc(b1-2)Man(a1-6)]Man(b1-4)GlcNAc(b1-4)GlcNAc
# Outline: (§1)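 The binding signal is a Z-score computed within each array. Data were drawn from 3228 arrays in the Consortium for Functional Glycomics database, restricted to those with a known protein sequence. Scores were averaged over arrays of the same protein sequence at different concentrations or buffers, and over linkers, and negative values can be taken as non-binding.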
# [2] = biological target: Neu5Ac(a2-6)Gal(b1-4)GlcNAc(b1-2)Man(a1-3)[Man(a1-6)]Man(b1-4)GlcNAc(b1-4)GlcNAc
# Outline: as §1
# [3] = biological target: Neu5Ac(a2-6)Gal(b1-4)GlcNAc(b1-2)Man(a1-3)[Neu5Ac(a2-3)Gal(b1-4)GlcNAc(b1-2)Man(a1-6)]Man(b1-4)GlcNAc(b1-4)GlcNAc
# Outline: as §1
# [4] = biological target: Neu5Ac(a2-6)Gal(b1-4)GlcNAc(b1-2)Man(a1-3)[Neu5Ac(a2-6)Gal(b1-4)GlcNAc(b1-2)Man(a1-6)]Man(b1-4)GlcNAc(b1-4)GlcNAc
# Outline: as §1
# [5] = biological target: Neu5Ac(a2-6)Gal(b1-4)GlcNAc(b1-2)Man(a1-3)[Neu5Ac(a2-6)Gal(b1-4)GlcNAc(b1-2)Man(a1-6)]Man(b1-4)GlcNAc(b1-4)[Fuc(a1-6)]GlcNAc
# Outline: as §1
# [6] = biological target: Neu5Ac(a2-6)Gal(b1-4)GlcNAc(b1-2)Man(a1-6)Man(b1-4)GlcNAc(b1-4)GlcNAc
# Outline: as §1
# [7] = biological target: Neu5Ac(a2-6)Gal(b1-4)GlcNAc(b1-2)Man(a1-6)[Gal(b1-4)GlcNAc(b1-2)Man(a1-3)]Man(b1-4)GlcNAc(b1-4)GlcNAc
# Outline: as §1
# [8] = biological target: Neu5Ac(a2-6)Gal(b1-4)GlcNAc(b1-2)Man(a1-6)[GlcNAc(b1-2)Man(a1-3)]Man(b1-4)GlcNAc(b1-4)GlcNAc
# Outline: as §1
# [9] = biological target: Neu5Ac(a2-6)Gal(b1-4)GlcNAc(b1-2)Man(a1-6)[Man(a1-3)]Man(b1-4)GlcNAc(b1-4)GlcNAc
# Outline: as §1
# [10] = biological target: Neu5Ac(a2-6)Gal(b1-4)GlcNAc(b1-2)[Neu5Ac(a2-6)Gal(b1-4)GlcNAc(b1-4)]Man(a1-3)[GlcNAc(b1-4)][Neu5Ac(a2-6)Gal(b1-4)GlcNAc(b1-2)[Neu5Ac(a2-6)Gal(b1-4)GlcNAc(b1-6)]Man(a1-6)]Man(b1-4)GlcNAc(b1-4)GlcNAc
# Outline: as §1
# [11] = biological target: Neu5Ac(a2-6)Gal(b1-4)GlcNAc(b1-2)[Neu5Ac(a2-6)Gal(b1-4)GlcNAc(b1-4)]Man(a1-3)[GlcNAc(b1-4)][Neu5Ac(a2-6)Gal(b1-4)GlcNAc(b1-4)Man(a1-6)]Man(b1-4)GlcNAc(b1-4)GlcNAc
# Outline: as §1
# [12] = biological target: Neu5Ac(a2-6)Gal(b1-4)GlcNAc(b1-2)[Neu5Ac(a2-6)Gal(b1-4)GlcNAc(b1-6)]Man(a1-6)[Neu5Ac(a2-6)Gal(b1-4)GlcNAc(b1-2)Man(a1-3)][GlcNAc(b1-4)]Man(b1-4)GlcNAc(b1-4)GlcNAc
# Outline: as §1
# [13] = biological target: Neu5Ac(a2-6)Gal(b1-4)GlcNAc(b1-3)Gal(b1-3)GlcNAc
# Outline: as §1
# [14] = biological target: Neu5Ac(a2-6)Gal(b1-4)GlcNAc(b1-3)Gal(b1-4)GlcNAc
# Outline: as §1
# [15] = biological target: Neu5Ac(a2-6)Gal(b1-4)GlcNAc(b1-3)Gal(b1-4)GlcNAc(b1-2)Man(a1-3)[Neu5Ac(a2-6)Gal(b1-4)GlcNAc(b1-3)Gal(b1-4)GlcNAc(b1-2)Man(a1-6)]GalNAc
# Outline: as §1
# [16] = biological target: Neu5Ac(a2-6)Gal(b1-4)GlcNAc(b1-3)Gal(b1-4)GlcNAc(b1-3)Gal(b1-4)GlcNAc
# Outline: as §1
# [17] = biological target: Neu5Ac(a2-6)Gal(b1-4)GlcNAc(b1-3)Gal(b1-4)GlcNAc(b1-3)Gal(b1-4)GlcNAc(b1-2)Man(a1-3)[Neu5Ac(a2-6)Gal(b1-4)GlcNAc(b1-3)Gal(b1-4)GlcNAc(b1-3)Gal(b1-4)GlcNAc(b1-2)Man(a1-6)]GalNAc
# Outline: as §1
# [18] = biological target: Neu5Ac(a2-6)Gal(b1-4)GlcNAc(b1-3)Gal(b1-4)GlcNAc(b1-3)GalNAc
# Outline: as §1
# [19] = biological target: Neu5Ac(a2-6)Gal(b1-4)GlcNAc(b1-3)Gal(b1-4)GlcNAc(b1-3)[Neu5Ac(a2-6)Gal(b1-4)GlcNAc(b1-3)Gal(b1-4)GlcNAc(b1-6)]GalNAc
# Outline: as §1
# [20] = biological target: Neu5Ac(a2-6)Gal(b1-4)GlcNAc(b1-3)Gal(b1-4)GlcNAc(b1-6)[Gal(b1-3)]GalNAc
# Outline: as §1
# [21] = biological target: Neu5Ac(a2-6)Gal(b1-4)GlcNAc(b1-3)Gal(b1-4)[Fuc(a1-3)]GlcNAc(b1-3)Gal(b1-4)[Fuc(a1-3)]GlcNAc
# Outline: as §1
# [22] = biological target: Neu5Ac(a2-6)Gal(b1-4)GlcNAc(b1-3)GalNAc
# Outline: as §1
# [23] = biological target: Neu5Ac(a2-6)Gal(b1-4)GlcNAc(b1-3)[Neu5Ac(a2-6)Gal(b1-4)GlcNAc(b1-6)]GalNAc
# Outline: as §1
# [24] = biological target: Neu5Ac(a2-6)Gal(b1-4)GlcNAc(b1-6)GalNAc
# Outline: as §1
# [25] = biological target: Neu5Ac(a2-6)Gal(b1-4)GlcNAc(b1-6)[Gal(b1-3)GlcNAc(b1-3)]Gal(b1-4)Glc
# Outline: as §1
# [26] = biological target: Neu5Ac(a2-6)Gal(b1-4)GlcNAc(b1-6)[Gal(b1-3)]GalNAc
# Outline: as §1
# [27] = biological target: Neu5Ac(a2-6)Gal(b1-4)GlcNAc6S
# Outline: as §1
# [28] = biological target: Neu5Ac(a2-6)GalNAc
# Outline: as §1
# [29] = biological target: Neu5Ac(a2-6)GalNAc(b1-4)GlcNAc
# Outline: as §1
# [30] = biological target: Neu5Ac(a2-6)GalNAc(b1-4)GlcNAc6S
# Outline: as §1
binder,measurement,setting,value
B1,glycan array binding signal (z-score),[1],0.288
same,glycan array binding signal (z-score),[2],0.402
same,glycan array binding signal (z-score),[3],-0.62
same,glycan array binding signal (z-score),[4],0.53
same,glycan array binding signal (z-score),[5],-0.413
same,glycan array binding signal (z-score),[6],0.416
same,glycan array binding signal (z-score),[7],2.29
same,glycan array binding signal (z-score),[8],0.499
same,glycan array binding signal (z-score),[9],0.041
same,glycan array binding signal (z-score),[10],-0.648
same,glycan array binding signal (z-score),[11],-0.021
same,glycan array binding signal (z-score),[12],-0.438
same,glycan array binding signal (z-score),[13],-1.26
same,glycan array binding signal (z-score),[14],-0.1
same,glycan array binding signal (z-score),[15],-0.595
same,glycan array binding signal (z-score),[16],0.534
same,glycan array binding signal (z-score),[17],1.07
same,glycan array binding signal (z-score),[18],-0.813
same,glycan array binding signal (z-score),[19],3.02
same,glycan array binding signal (z-score),[20],-0.608
same,glycan array binding signal (z-score),[21],-0.754
same,glycan array binding signal (z-score),[22],-0.976
same,glycan array binding signal (z-score),[23],0.296
same,glycan array binding signal (z-score),[24],-0.644
same,glycan array binding signal (z-score),[25],-1.1
same,glycan array binding signal (z-score),[26],0.145
same,glycan array binding signal (z-score),[27],1.19
same,glycan array binding signal (z-score),[28],-0.743
same,glycan array binding signal (z-score),[29],-0.075
same,glycan array binding signal (z-score),[30],-2.33

# Taken from above for reference:
binder,measurement,setting,value
B1,glycan array binding signal (z-score),[17],1.07
same,glycan array binding signal (z-score),[18],-0.813
